Laboratory results published in patent publication US20230090487A1.
Changes are numbered by the printed parent chain. No constants are given. Whether binding was seen depends on the method and setting. Some entries that bind do so weakly or less than the wild type.

Biological target: T1, IgE peptide … (SEQ ID NO:35) (human)
T1 sequence (peptide): YQCRVTHPHLPRALM
Test: Pepscan peptide array, linear and single loop mimics

B1: hLAAIGE E17 (antibody, human IgG1, kappa, V domains shown)
VH: QVQLVQSGSELKKPGASVKVSCKASGYTFTNYGMNWVRQAPGQGLEWMGWINTYTGEPTYADDFKGRFVFSLDTSVSTAYLQISSLKAEDTAVYYCARGAASHTMDYWGQGTTVTVSS
VL: DIVMTQSPDSLAVSLGERATINCRASQSVSTSSHAYMHWYQQKPGQPPKLLIYYASNLESGVPDRFSGSGSGTDFTLTISSLQAEDVAVYYCQHSWEIPWTFGQGTKLEIKR
For B1, the binding was “binds”.

B2: hLAAIGE E59 (antibody, human IgG1, kappa, V domains shown)
VH: B1 VH
VL: B1 VL with A35S
In the case of B2, the binding is reported as “binds”.
